These are yes or no findings as the source states them, for the method shown. Binding seen in cells or lysates may run through a third protein. Some entries that bind do so weakly or less than the wild type. Tags and fused reporters may be left off the sequences shown. Each block holds one molecule with its values, some of them ahead of it.
Experiments:
[1] = target: T1, wild type (WT) Taspase1-GFP (human) (UniProt Q9H6P5); test: co-IP; Taspase1-GFP precipitated with anti-GFP MicroBeads from chromatin fractions of transfected HEK 293T cells treated with 50 nM E2 or DMSO for 1 h; immunoblot
T1 sequence: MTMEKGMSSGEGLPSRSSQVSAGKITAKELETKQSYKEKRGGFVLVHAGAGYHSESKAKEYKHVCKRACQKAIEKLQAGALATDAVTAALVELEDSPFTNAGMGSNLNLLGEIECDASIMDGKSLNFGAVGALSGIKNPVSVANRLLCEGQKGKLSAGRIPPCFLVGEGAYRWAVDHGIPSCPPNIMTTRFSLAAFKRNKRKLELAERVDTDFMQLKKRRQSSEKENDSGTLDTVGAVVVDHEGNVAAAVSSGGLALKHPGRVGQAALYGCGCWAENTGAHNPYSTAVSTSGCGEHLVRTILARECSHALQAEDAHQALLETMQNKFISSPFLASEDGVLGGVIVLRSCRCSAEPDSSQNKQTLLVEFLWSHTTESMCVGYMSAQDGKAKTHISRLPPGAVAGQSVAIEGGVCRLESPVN

Protein sequences, listed by entry. Tags and fused reporters are not part of them.
UniProt P11388: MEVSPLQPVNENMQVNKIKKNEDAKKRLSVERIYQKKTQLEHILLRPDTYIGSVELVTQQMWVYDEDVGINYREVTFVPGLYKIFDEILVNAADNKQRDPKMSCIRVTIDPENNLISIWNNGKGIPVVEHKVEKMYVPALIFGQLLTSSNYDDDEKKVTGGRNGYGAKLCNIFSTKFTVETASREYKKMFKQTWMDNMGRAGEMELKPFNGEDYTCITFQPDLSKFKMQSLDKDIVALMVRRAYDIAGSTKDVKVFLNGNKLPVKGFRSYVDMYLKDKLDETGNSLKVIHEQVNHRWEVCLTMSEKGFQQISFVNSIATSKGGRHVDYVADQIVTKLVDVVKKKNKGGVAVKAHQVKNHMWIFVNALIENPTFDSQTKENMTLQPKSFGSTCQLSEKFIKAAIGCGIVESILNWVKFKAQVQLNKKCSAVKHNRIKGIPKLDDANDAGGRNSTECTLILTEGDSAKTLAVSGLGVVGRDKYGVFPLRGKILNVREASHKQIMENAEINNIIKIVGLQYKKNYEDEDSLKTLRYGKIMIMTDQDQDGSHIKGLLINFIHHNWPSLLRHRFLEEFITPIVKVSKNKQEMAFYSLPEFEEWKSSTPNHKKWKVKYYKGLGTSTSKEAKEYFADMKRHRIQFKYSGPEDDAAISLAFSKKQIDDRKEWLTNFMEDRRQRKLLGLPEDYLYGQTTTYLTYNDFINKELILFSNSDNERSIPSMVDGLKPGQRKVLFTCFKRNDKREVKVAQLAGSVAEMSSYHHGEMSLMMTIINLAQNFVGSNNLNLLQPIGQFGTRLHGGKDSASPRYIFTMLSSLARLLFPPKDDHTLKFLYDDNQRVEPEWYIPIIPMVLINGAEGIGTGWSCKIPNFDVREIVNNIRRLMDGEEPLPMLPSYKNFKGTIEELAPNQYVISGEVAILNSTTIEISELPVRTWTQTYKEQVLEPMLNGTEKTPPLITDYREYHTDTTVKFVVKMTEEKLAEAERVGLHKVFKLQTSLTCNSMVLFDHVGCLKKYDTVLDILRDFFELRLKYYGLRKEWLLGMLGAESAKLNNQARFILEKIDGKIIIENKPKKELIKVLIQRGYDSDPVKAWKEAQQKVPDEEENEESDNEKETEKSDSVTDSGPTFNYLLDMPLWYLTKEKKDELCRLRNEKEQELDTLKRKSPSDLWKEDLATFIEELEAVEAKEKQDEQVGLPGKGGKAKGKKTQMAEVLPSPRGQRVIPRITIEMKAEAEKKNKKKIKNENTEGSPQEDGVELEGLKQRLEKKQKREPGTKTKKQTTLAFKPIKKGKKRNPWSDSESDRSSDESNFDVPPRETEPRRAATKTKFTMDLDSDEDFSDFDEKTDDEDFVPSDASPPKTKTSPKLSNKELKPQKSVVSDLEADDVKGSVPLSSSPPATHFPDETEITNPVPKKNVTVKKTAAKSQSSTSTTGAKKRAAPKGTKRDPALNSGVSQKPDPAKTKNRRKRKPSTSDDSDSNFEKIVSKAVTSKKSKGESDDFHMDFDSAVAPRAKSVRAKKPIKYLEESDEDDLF
UniProt Q03164: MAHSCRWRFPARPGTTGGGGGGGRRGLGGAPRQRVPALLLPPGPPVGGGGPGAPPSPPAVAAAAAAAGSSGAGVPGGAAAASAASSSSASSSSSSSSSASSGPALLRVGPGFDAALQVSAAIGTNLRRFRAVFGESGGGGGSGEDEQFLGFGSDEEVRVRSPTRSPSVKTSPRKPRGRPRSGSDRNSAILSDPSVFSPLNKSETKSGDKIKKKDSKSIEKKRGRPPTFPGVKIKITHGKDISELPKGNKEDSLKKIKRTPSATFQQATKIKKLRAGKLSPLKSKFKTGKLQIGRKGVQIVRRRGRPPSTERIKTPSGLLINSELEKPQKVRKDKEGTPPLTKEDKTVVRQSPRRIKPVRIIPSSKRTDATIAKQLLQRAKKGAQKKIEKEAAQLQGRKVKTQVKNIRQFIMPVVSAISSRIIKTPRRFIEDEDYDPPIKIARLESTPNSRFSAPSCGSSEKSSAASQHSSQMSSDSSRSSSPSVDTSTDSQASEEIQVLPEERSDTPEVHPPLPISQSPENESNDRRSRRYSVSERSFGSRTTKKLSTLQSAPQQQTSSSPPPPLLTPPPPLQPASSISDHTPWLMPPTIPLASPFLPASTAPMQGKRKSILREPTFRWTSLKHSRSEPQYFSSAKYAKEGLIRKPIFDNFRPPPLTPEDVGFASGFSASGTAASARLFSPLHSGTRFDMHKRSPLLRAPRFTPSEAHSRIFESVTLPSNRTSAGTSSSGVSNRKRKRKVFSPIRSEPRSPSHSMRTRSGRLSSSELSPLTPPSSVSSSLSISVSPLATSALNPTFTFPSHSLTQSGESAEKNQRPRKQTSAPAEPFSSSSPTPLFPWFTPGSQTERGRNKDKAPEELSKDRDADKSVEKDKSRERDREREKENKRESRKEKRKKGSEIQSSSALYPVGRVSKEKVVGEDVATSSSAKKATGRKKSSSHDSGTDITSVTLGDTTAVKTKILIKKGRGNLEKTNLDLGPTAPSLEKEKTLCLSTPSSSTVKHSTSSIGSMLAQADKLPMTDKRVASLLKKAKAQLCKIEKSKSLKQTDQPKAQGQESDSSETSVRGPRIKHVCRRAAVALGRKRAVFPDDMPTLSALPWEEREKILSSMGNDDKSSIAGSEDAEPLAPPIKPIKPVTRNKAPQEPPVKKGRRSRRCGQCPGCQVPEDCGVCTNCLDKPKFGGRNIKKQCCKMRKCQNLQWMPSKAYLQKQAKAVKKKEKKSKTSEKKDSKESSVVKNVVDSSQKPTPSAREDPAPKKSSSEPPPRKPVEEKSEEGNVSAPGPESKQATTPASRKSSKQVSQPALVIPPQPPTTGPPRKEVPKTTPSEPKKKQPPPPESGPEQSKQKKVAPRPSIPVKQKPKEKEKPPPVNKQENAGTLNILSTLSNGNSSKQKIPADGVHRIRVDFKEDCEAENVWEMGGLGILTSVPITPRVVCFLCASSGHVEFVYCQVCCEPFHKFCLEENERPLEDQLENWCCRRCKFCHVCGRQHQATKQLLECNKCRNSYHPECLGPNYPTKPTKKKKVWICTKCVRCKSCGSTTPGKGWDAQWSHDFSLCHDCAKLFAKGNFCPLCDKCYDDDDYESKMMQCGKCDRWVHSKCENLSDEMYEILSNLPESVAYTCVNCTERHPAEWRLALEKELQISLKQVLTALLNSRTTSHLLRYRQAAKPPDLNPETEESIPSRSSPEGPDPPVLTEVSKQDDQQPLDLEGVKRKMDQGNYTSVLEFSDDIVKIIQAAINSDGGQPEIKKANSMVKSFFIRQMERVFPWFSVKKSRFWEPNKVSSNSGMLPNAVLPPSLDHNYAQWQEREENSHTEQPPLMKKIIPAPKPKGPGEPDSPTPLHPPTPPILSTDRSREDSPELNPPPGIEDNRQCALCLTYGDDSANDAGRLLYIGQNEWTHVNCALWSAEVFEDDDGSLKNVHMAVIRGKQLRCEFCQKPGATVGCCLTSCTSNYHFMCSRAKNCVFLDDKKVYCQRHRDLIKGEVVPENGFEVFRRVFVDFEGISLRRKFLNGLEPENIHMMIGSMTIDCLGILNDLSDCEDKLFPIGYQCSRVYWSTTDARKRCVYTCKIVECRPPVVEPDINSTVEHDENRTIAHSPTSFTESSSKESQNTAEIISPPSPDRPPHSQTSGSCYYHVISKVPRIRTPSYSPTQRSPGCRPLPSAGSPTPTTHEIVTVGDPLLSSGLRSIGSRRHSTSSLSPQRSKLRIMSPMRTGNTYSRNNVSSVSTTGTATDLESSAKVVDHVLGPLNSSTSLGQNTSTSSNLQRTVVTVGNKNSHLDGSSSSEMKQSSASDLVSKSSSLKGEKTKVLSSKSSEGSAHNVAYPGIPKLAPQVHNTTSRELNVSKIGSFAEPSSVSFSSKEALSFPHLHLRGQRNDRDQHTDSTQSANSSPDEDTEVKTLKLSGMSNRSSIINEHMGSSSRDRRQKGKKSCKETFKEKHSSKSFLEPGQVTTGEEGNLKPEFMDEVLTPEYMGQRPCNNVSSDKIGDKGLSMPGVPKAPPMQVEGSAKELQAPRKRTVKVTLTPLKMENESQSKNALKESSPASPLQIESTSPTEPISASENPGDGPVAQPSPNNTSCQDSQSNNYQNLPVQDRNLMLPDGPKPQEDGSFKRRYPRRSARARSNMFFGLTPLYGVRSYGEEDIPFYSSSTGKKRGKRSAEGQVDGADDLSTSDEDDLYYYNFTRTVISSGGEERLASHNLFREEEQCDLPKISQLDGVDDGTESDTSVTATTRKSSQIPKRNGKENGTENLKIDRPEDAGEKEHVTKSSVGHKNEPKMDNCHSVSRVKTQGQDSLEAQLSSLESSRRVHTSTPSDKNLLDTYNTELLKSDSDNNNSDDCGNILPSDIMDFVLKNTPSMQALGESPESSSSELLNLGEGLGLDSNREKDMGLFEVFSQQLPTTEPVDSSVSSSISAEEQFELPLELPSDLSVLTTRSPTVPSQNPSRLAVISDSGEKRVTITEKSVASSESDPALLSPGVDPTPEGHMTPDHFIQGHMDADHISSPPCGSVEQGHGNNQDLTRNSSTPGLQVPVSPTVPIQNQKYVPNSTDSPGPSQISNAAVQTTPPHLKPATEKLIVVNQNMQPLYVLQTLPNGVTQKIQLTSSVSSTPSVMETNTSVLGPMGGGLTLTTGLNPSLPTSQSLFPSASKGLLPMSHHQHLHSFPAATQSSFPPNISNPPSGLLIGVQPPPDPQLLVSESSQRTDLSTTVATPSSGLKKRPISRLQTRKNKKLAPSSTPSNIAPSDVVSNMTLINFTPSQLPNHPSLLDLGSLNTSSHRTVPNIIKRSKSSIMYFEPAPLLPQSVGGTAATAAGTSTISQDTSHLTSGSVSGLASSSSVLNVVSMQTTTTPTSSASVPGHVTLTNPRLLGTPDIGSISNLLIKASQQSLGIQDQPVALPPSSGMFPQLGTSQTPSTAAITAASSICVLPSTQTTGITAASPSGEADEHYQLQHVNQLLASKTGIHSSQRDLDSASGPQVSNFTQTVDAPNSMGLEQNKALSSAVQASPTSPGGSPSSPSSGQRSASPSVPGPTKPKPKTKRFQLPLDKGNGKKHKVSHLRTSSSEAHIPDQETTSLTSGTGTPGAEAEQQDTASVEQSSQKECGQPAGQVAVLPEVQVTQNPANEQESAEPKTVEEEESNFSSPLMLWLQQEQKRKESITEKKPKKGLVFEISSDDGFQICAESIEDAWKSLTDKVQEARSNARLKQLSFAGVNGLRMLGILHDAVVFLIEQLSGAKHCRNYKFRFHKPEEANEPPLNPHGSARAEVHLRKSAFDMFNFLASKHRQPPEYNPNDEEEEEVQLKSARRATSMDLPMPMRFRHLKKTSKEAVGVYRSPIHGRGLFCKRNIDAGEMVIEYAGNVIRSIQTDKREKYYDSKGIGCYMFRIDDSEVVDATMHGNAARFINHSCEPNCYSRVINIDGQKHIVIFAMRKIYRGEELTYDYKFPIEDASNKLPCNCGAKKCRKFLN
UniProt P06748: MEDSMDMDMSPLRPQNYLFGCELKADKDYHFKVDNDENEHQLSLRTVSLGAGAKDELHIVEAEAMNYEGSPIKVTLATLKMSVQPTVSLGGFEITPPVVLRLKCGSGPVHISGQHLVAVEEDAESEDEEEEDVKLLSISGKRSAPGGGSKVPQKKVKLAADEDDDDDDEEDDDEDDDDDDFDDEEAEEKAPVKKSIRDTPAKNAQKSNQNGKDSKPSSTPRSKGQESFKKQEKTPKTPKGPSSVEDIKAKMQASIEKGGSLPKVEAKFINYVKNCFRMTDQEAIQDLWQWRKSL

[2] = target: T2, Taspase1^T234V-GFP, catalytic inactive Taspase1 variant (human) (UniProt Q9H6P5); test: co-IP; GFP fusion proteins precipitated with µMACS anti-GFP MicroBeads from whole cell lysates of transfected HEK 293T cells; low-salt lysis buffer (50 mM Tris pH 8.0, 150 mM NaCl, 5 mM EDTA, 0.5% NP-40); eluates analysed by immunoblot
T2 sequence: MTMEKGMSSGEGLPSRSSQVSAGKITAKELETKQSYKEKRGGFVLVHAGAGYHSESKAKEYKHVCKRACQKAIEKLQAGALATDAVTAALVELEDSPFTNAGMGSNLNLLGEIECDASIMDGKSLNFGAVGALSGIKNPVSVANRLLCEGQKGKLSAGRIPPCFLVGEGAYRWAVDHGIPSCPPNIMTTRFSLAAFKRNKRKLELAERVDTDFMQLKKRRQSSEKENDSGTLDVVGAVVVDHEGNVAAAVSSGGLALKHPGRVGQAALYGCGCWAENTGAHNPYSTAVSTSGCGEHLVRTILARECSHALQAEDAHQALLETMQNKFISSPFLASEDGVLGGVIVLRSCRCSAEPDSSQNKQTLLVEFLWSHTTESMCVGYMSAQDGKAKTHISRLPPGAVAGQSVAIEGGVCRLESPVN

[3] = target: T1, wild type (WT) Taspase1-GFP (human); test: as above
[4] = target: Topo IIα-GFP (GFP-tagged Topoisomerase IIα) (UniProt P11388); test: as above
[5] = target: Topo IIβ-GFP (GFP-tagged Topoisomerase IIβ) (UniProt Q02880); test: as above

- binding [1]: binds
Molecule: MLL1 (mixed lineage or myeloid/lymphoid leukemia) protein (from UniProt Q03164 1-3969) (enzyme)

- binding [2]: binds
- binding [3]: binds
Molecule: Nucleophosmin1 (NPM1) (from UniProt P06748 1-294)

- binding [4]: binds
- binding [5]: binds
B1: wild-type Taspase1-HA (enzyme, UniProt Q9H6P5 1-420)
chain: MTMEKGMSSGEGLPSRSSQVSAGKITAKELETKQSYKEKRGGFVLVHAGAGYHSESKAKEYKHVCKRACQKAIEKLQAGALATDAVTAALVELEDSPFTNAGMGSNLNLLGEIECDASIMDGKSLNFGAVGALSGIKNPVSVANRLLCEGQKGKLSAGRIPPCFLVGEGAYRWAVDHGIPSCPPNIMTTRFSLAAFKRNKRKLELAERVDTDFMQLKKRRQSSEKENDSGTLDTVGAVVVDHEGNVAAAVSSGGLALKHPGRVGQAALYGCGCWAENTGAHNPYSTAVSTSGCGEHLVRTILARECSHALQAEDAHQALLETMQNKFISSPFLASEDGVLGGVIVLRSCRCSAEPDSSQNKQTLLVEFLWSHTTESMCVGYMSAQDGKAKTHISRLPPGAVAGQSVAIEGGVCRLESPVN
